Laboratory results: PubChem BioAssay AID1053208 (Peter MacCallum Cancer Centre, 2014)

Screen: 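Find knock-downs that sensitise mouse osteosarcoma cells to doxorubicin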 (primary screen)
Cell system: mouse osteosarcoma cells, early-passage culture from an engineered mouse model of fibroblastic bone tumour
Knock-down reagent: siRNA pool against mouse genes, 40 nM
Time to read-out: about 120 h (48 h before drug, then 72 h with drug)
Challenge: doxorubicin 100 nM for 72 h, roughly 30-40% inhibitory dose
Read-out: 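Viability read as ATP luminescence after 72 h of 100 nM doxorubicin or none, duplicate wells averaged, scaled to non-targeting siRNA, then expressed as robust z-scores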
Reading the numbers: viability z-score with doxorubicin: higher = more viable cells under doxorubicin; viability z-score without drug: higher = more viable cells with knock-down alone
Rule for the call: 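a pool counts as active when its viability z-score with doxorubicin is -2 or below and its z-score without drug lies between -2 and 2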
In all, the deposit lists about 17,000 reagents; shown is an unselected part. 788 of them (4.7%) count as active. 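Calls rest on z-score classes alone; an extra cut-off of viability at most 70% of control was not applied to them.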 Entries without a mark were called inactive. Not all columns of the deposit are shown. No sequences are given here.

The opening 2 records as a preview:
2810032G03Rik (RIKEN cDNA 2810032G03 gene) → combined z-score class = no change with or without drug; viability z-score with doxorubicin = 1.12; viability z-score without drug = -0.84
Med21 (mediator complex subunit 21) → combined z-score class = no change with or without drug; viability z-score with doxorubicin = 0.11; viability z-score without drug = 0.51

The list itself, from the start:
2810032G03Rik (RIKEN cDNA 2810032G03 gene) → combined z-score class = no change with or without drug; viability z-score with doxorubicin = 1.12; viability z-score without drug = -0.84
Med21 (mediator complex subunit 21) → combined z-score class = no change with or without drug; viability z-score with doxorubicin = 0.11; viability z-score without drug = 0.51
Mettl22 (methyltransferase 22, Kin17 lysine) → combined z-score class = no change with or without drug; viability z-score with doxorubicin = 1.46; viability z-score without drug = 1.69
Oprm1 (opioid receptor, mu 1) → combined z-score class = no change with or without drug; viability z-score with doxorubicin = -1.35; viability z-score without drug = -0.17
Krtap13 (keratin associated protein 13) → combined z-score class = no change with or without drug; viability z-score with doxorubicin = -1.24; viability z-score without drug = -1.18
Tmbim1 (transmembrane BAX inhibitor motif containing 1) → combined z-score class = no change with or without drug; viability z-score with doxorubicin = -0.34; viability z-score without drug = 0.84
Ankmy1 (ankyrin repeat and MYND domain containing 1) → combined z-score class = no change with or without drug; viability z-score with doxorubicin = -0.22; viability z-score without drug = 1.18
Tubb4a (tubulin, beta 4A class IVA) → combined z-score class = no change with or without drug; viability z-score with doxorubicin = 0.22; viability z-score without drug = 1.01
Cert1 (ceramide transporter 1) → combined z-score class = low cell count with doxorubicin only (active); viability z-score with doxorubicin = -2.02; viability z-score without drug = -1.52
Ptk7 (PTK7 protein tyrosine kinase 7) → combined z-score class = high cell count without drug only; viability z-score with doxorubicin = 1.35; viability z-score without drug = 2.36
Ptger4 (prostaglandin E receptor 4 (subtype EP4)) → combined z-score class = no change with or without drug; viability z-score with doxorubicin = 0.56; viability z-score without drug = -0.67
Or4b1 (olfactory receptor family 4 subfamily B member 1) → combined z-score class = no change with or without drug; viability z-score with doxorubicin = -0.79; viability z-score without drug = -0.67
